Experimental findings from patent publication US20080200369A1 (SANFORD BURNHAM MEDICAL RESEARCH INSTITUTE, published 2008) are described below.

These are yes or no findings as the source states them, for the method shown. Some entries that bind do so weakly or less than the wild type.

The target in assay [1] is T1, trophinin (human) (UniProt Q12816).
T1 sequence (looked up): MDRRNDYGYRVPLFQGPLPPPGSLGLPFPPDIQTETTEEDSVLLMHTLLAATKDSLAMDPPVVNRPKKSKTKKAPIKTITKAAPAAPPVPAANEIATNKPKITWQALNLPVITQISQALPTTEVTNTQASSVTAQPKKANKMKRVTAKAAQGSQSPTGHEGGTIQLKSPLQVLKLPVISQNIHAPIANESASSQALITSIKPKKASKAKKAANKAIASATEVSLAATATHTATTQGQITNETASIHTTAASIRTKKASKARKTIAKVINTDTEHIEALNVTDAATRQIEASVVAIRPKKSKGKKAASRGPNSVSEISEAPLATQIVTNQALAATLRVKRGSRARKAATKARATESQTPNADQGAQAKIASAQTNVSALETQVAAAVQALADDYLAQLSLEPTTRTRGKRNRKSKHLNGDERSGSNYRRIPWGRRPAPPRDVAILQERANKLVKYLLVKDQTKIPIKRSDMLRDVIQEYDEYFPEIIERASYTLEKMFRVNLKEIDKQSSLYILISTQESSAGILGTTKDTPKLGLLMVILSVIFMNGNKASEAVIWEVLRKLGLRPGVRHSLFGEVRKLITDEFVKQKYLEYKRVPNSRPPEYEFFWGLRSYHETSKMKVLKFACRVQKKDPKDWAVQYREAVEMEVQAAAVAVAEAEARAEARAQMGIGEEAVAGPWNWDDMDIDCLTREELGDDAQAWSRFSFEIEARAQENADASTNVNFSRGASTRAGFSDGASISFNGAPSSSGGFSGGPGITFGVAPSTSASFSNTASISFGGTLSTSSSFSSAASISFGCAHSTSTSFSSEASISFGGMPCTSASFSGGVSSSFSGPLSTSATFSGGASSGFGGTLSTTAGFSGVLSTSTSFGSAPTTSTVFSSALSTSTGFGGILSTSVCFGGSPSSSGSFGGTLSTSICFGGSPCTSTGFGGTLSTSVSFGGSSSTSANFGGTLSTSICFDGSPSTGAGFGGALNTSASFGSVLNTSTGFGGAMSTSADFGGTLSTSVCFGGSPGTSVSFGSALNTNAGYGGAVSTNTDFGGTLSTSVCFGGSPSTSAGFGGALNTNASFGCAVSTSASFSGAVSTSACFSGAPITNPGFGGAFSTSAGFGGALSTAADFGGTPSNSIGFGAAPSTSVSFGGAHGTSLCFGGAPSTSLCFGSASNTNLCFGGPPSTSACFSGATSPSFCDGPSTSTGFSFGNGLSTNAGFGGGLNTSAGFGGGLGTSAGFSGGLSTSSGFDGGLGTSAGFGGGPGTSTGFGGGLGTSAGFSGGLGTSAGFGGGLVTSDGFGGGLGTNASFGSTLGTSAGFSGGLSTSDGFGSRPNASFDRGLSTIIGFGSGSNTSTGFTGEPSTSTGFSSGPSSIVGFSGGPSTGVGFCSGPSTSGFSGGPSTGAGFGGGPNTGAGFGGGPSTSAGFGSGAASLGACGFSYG
The assay can be described thus: phage library screening on HT-H monolayer; phage binding on HT-H cells by colony counting (FIG. 1A).

Assay [2] concerns the target T1, trophinin (human). In words: phage bound to HT-H monolayer, lysis, immunoprecipitation with rabbit anti-M13 antibody, Western blot with anti-trophinin antibody (FIG. 1D). In general terms: A western blot detects proteins with antibodies after separation by electrophoresis.
Assay [3] deals with T1, trophinin (human). In words: phage overlaid on fixed, acid-treated human sperm (tail stains for trophinin); immunostaining with anti-phage (fd) antibody.
Assay [4] concerns the target T1, trophinin (human). In words: phage binding assay by colony counting on fixed HT-H cell monolayers.
Assay [5] addresses T1, trophinin (human). In words: phage overlaid on fixed human sperm; immunostaining with anti-phage (fd) antibody.

Consider SKGWKHWTPR [SEQ ID NO 25], for which the binding entry in the assay with trophinin (human) [1] is given as “binds”.

On to SSLMLGGWRQ [SEQ ID NO 19], for which, in the assay with trophinin (human) [1], the binding entry is on record as “binds”.

For LSLRGYRQAR [SEQ ID NO 21], the binding entry in the assay with trophinin (human) [1] is on record as “binds”.

As to TWRYLRSPQG [SEQ ID NO 24], in the assay with trophinin (human) [1], the binding entry was “binds”.

As for GWRQLTARVP [SEQ ID NO 23], in the assay with trophinin (human) [1], the binding result is “binds”.

Consider GWRQLTARVP [M13-based phage displaying … (SEQ ID NO:4) peptide], for which the binding entry with trophinin (human) [2], with trophinin (human) [3], with trophinin (human) [4] and in the assay with trophinin (human) [5] was “binds” throughout.

With SLSVGWRQSG [SEQ ID NO 20], in the assay with trophinin (human) [1], the binding entry was “binds”.

Consider VLWRGVAGRG [SEQ ID NO 22], for which the binding entry with trophinin (human) [1] is “binds”.
